Laboratory results: PMC11339338
No constants are given. Whether binding was seen depends on the method and setting. In cells and extracts the contact can be indirect. A result given as binding can be weak or reduced; the word gives no strength.

Chains of the proteins cited; added tags and fusions are not shown. Lines headed by an entry give the natural chain unless they say otherwise; changes in a name come on top.
UniProt Q86U44: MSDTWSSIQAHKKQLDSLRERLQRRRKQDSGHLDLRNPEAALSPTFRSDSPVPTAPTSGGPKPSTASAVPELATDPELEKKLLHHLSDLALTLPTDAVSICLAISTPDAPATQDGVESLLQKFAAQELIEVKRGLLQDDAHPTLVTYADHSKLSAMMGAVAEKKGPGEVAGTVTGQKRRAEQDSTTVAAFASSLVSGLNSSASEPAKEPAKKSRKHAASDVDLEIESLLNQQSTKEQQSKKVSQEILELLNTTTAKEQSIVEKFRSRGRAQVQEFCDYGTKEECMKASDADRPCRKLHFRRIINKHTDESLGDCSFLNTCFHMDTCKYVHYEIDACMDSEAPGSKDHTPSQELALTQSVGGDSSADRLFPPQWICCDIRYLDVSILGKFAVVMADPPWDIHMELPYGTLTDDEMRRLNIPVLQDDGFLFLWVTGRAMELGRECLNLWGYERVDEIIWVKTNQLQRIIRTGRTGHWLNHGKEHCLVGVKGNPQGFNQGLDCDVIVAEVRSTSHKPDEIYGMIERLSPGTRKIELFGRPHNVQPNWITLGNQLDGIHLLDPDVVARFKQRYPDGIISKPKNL
UniProt Q9H5I1: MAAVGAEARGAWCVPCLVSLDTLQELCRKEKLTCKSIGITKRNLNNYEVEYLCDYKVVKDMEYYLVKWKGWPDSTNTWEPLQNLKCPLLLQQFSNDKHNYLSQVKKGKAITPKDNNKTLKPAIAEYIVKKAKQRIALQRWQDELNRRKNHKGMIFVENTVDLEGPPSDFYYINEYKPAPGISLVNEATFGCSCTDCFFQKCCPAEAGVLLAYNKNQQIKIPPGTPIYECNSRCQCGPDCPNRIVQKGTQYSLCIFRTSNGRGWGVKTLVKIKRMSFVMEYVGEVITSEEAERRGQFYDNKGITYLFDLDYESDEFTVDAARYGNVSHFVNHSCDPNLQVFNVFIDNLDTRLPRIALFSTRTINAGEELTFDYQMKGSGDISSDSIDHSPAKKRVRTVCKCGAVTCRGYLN
UniProt Q16531: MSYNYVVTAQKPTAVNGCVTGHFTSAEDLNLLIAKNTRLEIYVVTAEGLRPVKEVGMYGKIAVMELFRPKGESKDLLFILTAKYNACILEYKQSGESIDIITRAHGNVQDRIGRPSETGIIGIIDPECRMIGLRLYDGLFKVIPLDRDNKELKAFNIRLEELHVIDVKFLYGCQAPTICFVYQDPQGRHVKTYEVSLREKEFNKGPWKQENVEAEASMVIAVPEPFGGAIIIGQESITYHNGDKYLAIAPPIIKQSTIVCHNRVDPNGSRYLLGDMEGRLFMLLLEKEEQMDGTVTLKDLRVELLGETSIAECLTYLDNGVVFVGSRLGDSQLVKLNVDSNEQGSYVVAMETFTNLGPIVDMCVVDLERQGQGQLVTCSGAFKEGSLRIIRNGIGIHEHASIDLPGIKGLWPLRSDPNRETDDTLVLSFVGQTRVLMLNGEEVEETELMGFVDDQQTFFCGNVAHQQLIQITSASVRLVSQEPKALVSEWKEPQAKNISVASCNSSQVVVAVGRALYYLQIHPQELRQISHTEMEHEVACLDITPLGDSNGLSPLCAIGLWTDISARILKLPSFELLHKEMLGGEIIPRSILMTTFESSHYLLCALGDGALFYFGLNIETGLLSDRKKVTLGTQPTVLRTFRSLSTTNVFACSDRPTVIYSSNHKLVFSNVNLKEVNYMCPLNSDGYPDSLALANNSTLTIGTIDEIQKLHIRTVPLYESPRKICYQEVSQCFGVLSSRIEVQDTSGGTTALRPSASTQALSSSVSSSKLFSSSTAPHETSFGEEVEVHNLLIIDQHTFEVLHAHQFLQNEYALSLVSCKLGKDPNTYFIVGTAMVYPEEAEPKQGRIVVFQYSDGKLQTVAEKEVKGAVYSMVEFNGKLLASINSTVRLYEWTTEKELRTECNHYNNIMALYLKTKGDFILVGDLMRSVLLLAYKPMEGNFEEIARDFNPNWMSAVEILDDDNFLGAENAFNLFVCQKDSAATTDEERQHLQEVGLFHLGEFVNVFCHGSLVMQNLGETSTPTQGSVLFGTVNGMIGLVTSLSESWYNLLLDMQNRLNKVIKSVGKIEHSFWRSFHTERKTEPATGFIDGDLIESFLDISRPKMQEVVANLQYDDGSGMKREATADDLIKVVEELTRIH

Each molecule was assayed against mutant METTL3 (exogenous, in METTL3−/− hESCs rescued by mutant METTL3) (UniProt Q86U44) (assay: co-IP; anti-METTL3 antibody, protein A and G magnetic beads, whole cell extract of WT hESCs or METTL3−/− hESCs rescued by WT or mutant METTL3; 50 mM Tris-HCl pH 7.6, 150 mM KCl, 1 mM EDTA, 10% glycerol, 4 °C 16 h; also with RNase A treatment (interactions impaired)).

Row | binding | Molecule
1 | binds weakly | SUV39H2 (from UniProt Q9H5I1 1-410)
2 | binds weakly | DDB1 (from UniProt Q16531 1-1140)
3 | binds weakly | SUV39H1 (protein, UniProt O43463 1-412) MAENLKGCSVCCKSSWNQLQDLCRLAKLSCPALGISKRNLYDFEVEYLCDYKKIREQEYYLVKWRGYPDSESTWEPRQNLKCVRILKQFHKDLERELLRRHHRSKTPRHLDPSLANYLVQKAKQRRALRRWEQELNAKRSHLGRITVENEVDLDGPPRAFVYINEYRVGEGITLNQVAVGCECQDCLWAPTGGCCPGASLHKFAYNDQGQVRLRAGLPIYECNSRCRCGYDCPNRVVQKGIRYDLCIFRTDDGRGWGVRTLEKIRKNSFVMEYVGEIITSEEAERRGQIYDRQGATYLFDLDYVEDVYTVDAAYYGNISHFVNHSCDPNLQVYNVFIDNLDERLPRIAFFATRTIRAGEELTFDYNMQVDPVDMESTRMDSNFGLAGLPGSPKKRVRIECKCGTESCRKYLF
